Assay results reported in US11311542B2, “Inhibitors of cyclin dependent kinase 7 (CDK7)” (Syros Pharmaceuticals, Inc., priority 2018, dated 2022).
pIC50: −log10 of the molar value. Structures were worked out from names or drawings and are uncertain.

Chains of the proteins cited; added tags and fusions are not shown. Residues count along the entry.
UniProt P50613, whole entry: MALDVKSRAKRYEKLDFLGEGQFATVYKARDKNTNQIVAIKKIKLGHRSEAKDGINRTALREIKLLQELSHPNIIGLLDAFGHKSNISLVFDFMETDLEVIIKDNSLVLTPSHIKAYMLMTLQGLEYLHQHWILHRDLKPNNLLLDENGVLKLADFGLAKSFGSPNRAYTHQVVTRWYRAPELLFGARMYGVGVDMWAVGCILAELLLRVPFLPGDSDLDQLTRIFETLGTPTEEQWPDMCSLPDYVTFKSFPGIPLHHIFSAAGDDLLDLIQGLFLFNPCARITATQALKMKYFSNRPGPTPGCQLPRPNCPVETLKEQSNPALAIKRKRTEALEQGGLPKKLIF
UniProt Q9NYV4, 686-1082 limits assumed: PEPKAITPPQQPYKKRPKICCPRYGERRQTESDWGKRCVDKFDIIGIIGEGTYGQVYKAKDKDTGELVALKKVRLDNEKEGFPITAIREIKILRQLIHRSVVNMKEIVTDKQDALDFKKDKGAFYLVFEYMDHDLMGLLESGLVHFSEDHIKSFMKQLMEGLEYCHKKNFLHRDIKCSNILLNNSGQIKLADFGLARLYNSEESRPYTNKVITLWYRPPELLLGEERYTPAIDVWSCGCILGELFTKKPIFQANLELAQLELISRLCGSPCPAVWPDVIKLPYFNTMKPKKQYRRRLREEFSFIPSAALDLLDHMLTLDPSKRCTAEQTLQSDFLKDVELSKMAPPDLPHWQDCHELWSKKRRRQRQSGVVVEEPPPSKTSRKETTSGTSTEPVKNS
UniProt P50750, whole entry: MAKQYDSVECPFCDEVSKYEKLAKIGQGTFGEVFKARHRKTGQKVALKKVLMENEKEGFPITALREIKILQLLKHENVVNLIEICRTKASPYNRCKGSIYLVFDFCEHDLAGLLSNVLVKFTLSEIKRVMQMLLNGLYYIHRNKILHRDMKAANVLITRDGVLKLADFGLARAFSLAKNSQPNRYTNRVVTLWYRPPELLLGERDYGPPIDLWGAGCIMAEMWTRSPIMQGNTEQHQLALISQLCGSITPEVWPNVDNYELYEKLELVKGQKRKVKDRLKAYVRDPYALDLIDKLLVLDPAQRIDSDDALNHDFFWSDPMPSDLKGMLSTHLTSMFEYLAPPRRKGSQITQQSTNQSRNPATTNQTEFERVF
UniProt O60563, whole entry partner: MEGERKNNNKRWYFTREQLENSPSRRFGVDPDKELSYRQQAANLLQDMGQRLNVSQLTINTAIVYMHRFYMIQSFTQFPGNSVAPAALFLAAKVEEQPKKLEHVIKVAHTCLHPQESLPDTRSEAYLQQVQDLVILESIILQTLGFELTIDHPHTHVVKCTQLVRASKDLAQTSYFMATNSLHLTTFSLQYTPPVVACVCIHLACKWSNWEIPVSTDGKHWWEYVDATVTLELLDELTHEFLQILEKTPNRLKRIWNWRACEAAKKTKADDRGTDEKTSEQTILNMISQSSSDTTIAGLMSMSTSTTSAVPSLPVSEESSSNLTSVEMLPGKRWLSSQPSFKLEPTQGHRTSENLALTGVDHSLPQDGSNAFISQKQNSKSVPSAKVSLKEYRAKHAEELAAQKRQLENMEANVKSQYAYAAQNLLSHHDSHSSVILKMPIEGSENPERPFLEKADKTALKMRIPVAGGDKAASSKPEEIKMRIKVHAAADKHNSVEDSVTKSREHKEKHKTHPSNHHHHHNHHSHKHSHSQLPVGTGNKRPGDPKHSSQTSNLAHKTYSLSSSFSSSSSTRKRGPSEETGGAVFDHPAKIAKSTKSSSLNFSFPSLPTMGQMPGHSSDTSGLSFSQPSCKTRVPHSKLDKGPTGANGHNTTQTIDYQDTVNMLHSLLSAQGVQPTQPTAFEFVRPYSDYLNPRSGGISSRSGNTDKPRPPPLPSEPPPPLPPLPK
UniProt P51946, whole entry partner: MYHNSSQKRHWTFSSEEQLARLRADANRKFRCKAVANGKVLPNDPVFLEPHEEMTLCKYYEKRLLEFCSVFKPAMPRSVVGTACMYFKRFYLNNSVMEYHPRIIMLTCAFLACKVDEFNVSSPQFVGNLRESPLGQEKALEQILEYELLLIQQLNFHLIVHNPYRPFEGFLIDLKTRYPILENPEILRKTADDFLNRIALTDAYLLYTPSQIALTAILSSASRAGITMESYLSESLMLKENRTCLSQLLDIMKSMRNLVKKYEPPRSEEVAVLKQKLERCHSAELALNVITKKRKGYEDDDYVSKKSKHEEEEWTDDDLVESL
UniProt O75909, whole entry partner: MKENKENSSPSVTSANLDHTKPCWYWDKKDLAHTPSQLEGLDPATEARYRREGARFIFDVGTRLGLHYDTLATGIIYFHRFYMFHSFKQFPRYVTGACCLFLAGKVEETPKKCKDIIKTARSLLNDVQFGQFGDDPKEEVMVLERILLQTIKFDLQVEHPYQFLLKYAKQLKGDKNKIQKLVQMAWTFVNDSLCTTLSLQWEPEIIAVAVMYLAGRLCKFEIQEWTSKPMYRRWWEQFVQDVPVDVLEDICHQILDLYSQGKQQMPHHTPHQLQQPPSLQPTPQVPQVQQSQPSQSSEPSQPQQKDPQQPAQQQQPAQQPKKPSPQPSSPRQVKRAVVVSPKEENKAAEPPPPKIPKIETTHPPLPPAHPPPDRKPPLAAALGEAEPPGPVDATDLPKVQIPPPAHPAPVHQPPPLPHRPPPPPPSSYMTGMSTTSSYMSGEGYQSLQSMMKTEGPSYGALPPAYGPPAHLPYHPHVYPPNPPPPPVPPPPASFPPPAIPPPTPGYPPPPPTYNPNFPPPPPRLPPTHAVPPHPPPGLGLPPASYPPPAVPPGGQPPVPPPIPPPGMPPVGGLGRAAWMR
UniProt P51948, whole entry partner: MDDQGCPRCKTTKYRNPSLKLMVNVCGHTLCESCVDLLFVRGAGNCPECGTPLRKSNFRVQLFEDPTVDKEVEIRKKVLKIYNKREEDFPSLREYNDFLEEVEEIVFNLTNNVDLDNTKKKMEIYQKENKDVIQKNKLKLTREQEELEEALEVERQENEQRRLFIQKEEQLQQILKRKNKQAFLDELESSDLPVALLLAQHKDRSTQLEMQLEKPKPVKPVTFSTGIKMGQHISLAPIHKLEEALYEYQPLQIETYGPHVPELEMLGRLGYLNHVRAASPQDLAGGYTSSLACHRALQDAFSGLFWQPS

Assays:
[1] = target: CDK2/Cyclin E1 complex (Homo sapiens, UniProt P24941); test: CDK2 kinase inhibition assay (Caliper/LabChip EZ Reader); settings: read-out: CDK2 IC50; CDK2/Cyclin E1 0.5 nM, ATP 2 mM, 35 min at 27° C.
[2] = test system: MB453 cells; test: Inhibition of cell proliferation (CyQUANT Direct), MB453; settings: read-out: MB453 cell proliferation inhibition IC50, MB453, 72-hour
Experimental: (§1) HCC70 and MB453 cells are cell lines derived from human triple negative breast cancer COV318 and COV504 cells are cell lines derived from human ovarian cancer. Representative compounds of the invention were tested at different concentrations (from 4 μM to 126.4 pM; 0.5 log serial dilutions) for their ability to inhibit the proliferation of each of these cell lines. Known CDK inhibitors dinaciclib or N-((1S,3R)-3-((5-chloro-4-(1H-indol-3-yl) pyrimidin-2-yl)amino)cyclohexyl)-5-((E)-4-(dimethylamino)but-2-enamido)picolinamide and triptolide were used as positive controls. Cells were seeded at approximately 2,000 cells/well and grown in ATCC-formulated RPMI-1640 Medium (ATCC 30-2001)+10% FBS. The cells were cultured at 37° C. in a humidified chamber in the presence of 5% CO2. Proliferation assays were conducted over a 72-hour time period. CyQUANT® Direct Cell Proliferation Assay (Life Technologies, Chicago, Ill. USA) was used to assess the anti-proliferative effects of the compounds following manufacturer's directions and utilizing the reagents supplied with the CyQUANT® Direct Cell kit. […]

[3] = target: CDK7/Cyclin H/MAT1 complex (Homo sapiens, UniProt P50613); test: CDK7 kinase inhibition assay (Caliper/LabChip EZ Reader); settings: read-out: CDK7 IC50; CDK7/Cyclin H/MAT1 6 nM, ATP 2 mM, 35 min at 27° C.
[4] = test system: COV504 cells; test: Inhibition of cell proliferation (CyQUANT Direct), COV504; settings: read-out: COV504 cell proliferation inhibition IC50, COV504, 72-hour
Experimental: as §1

[5] = target: CDK12 (aa686-1082)/Cyclin K complex (Homo sapiens, UniProt Q9NYV4); test: CDK12 kinase inhibition assay (Caliper/LabChip EZ Reader); settings: read-out: CDK12 IC50; CDK12 (aa686-1082)/Cyclin K 50 nM, ATP 2 mM, 3 hr at 27° C.
[6] = test system: HCC70 cells; test: Inhibition of cell proliferation (CyQUANT Direct), HCC70; settings: read-out: HCC70 cell proliferation inhibition IC50, HCC70, 72-hour
Experimental: as §1

[7] = test system: COV318 cells; test: Inhibition of cell proliferation (CyQUANT Direct), COV318; settings: read-out: COV318 cell proliferation inhibition IC50, COV318, 72-hour
Experimental: as §1

[8] = target: CDK9/Cyclin T1 complex (Homo sapiens, UniProt P50750); test: CDK9 kinase inhibition assay (Caliper/LabChip EZ Reader); settings: read-out: CDK9 IC50; CDK9/Cyclin T1 8 nM, ATP 2 mM, 15 min at 27° C.

Cc1noc(C)c1-c1ccc2c(-c3nc(N[C@H]4CC[C@H](C)NC4)ncc3C(F)(F)F)n[nH]c2n1
pIC50 [1]: < 6.30
pIC50 [2]: 6.30 to 7.00
pIC50 [3]: > 7.52
pIC50 [4]: 6.00 to 6.30
pIC50 [5]: < 6.30
pIC50 [6]: < 6.00
pIC50 [7]: < 6.00
pIC50 [8]: < 6.30
